Measured data: PubChem BioAssay AID652272 (Drosophila RNAi Screening Center, 2013)
Test: 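Genes whose knock-down decreases or increases Hedgehog reporter output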 (primary screen). Cells: Drosophila clone 8 (Cl8) cells. Reagents: long dsRNA against Drosophila genes. Measured: 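Plate reader light from a firefly reporter under a ptc promoter fragment that responds to Hedgehog, with Renilla light as transfection reference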. Scale: firefly Hh reporter signal: higher = more ptc reporter light; Renilla reference signal: higher = more Renilla control light. Active means: 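Called a hit if the two-replicate mean z-score lies below -2 or above +3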. Meaning of the calls: active = hit: reporter lowered or raised; inactive = not a hit.
The deposit covers about 21,000 reagents; shown is an unselected part of those that have a named target and a result. Over the whole deposit, 503 (2.4%) are marked active. 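Raw plate light values, not normalised; calls rest on replicate z-scores that were not deposited; hits include reporter decreases as well as increases.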 The record does not give: the amount of reagent, the time to read-out.

CG34171 [DRSC01637]: firefly Hh reporter signal, replicate 1 = 96598; firefly Hh reporter signal, replicate 2 = 1.72e5; Renilla reference signal, replicate 1 = 1659; Renilla reference signal, replicate 2 = 8834; outcome = inactive
CG13229 [DRSC06349]: firefly Hh reporter signal, replicate 1 = 66914; firefly Hh reporter signal, replicate 2 = 57574; Renilla reference signal, replicate 1 = 1033; Renilla reference signal, replicate 2 = 4929; outcome = inactive
Gcat [DRSC09719]: firefly Hh reporter signal, replicate 1 = 16954; firefly Hh reporter signal, replicate 2 = 55505; firefly Hh reporter signal, replicate 3 = 68972; Renilla reference signal, replicate 1 = 5284; Renilla reference signal, replicate 2 = 5872; outcome = inactive
Use1 [DRSC10180]: firefly Hh reporter signal, replicate 1 = 64594; firefly Hh reporter signal, replicate 2 = 88588; Renilla reference signal, replicate 1 = 4176; Renilla reference signal, replicate 2 = 5960; outcome = inactive
CG3104 [DRSC00567]: firefly Hh reporter signal, replicate 1 = 1.83e5; firefly Hh reporter signal, replicate 2 = 1.34e5; Renilla reference signal, replicate 1 = 4259; Renilla reference signal, replicate 2 = 3165; outcome = inactive
CR11235 [DRSC20480]: firefly Hh reporter signal, replicate 1 = 87300; firefly Hh reporter signal, replicate 2 = 1.47e5; Renilla reference signal, replicate 1 = 3395; Renilla reference signal, replicate 2 = 6551; outcome = inactive
Rsod [DRSC15424]: firefly Hh reporter signal, replicate 1 = 68514; firefly Hh reporter signal, replicate 2 = 1.07e5; Renilla reference signal, replicate 1 = 1840; Renilla reference signal, replicate 2 = 2741; outcome = inactive

Continued (2 carried over from the part before).
CR11235 [DRSC20480]: firefly Hh reporter signal, replicate 1 = 87300; firefly Hh reporter signal, replicate 2 = 1.47e5; Renilla reference signal, replicate 1 = 3395; Renilla reference signal, replicate 2 = 6551; outcome = inactive
Rsod [DRSC15424]: firefly Hh reporter signal, replicate 1 = 68514; firefly Hh reporter signal, replicate 2 = 1.07e5; Renilla reference signal, replicate 1 = 1840; Renilla reference signal, replicate 2 = 2741; outcome = inactive
CG14332 [DRSC14811]: firefly Hh reporter signal, replicate 1 = 82139; firefly Hh reporter signal, replicate 2 = 89913; Renilla reference signal, replicate 1 = 2390; Renilla reference signal, replicate 2 = 2473; outcome = inactive
CG11588 [DRSC09145]: firefly Hh reporter signal, replicate 1 = 1.33e5; firefly Hh reporter signal, replicate 2 = 2.57e5; Renilla reference signal, replicate 1 = 13641; Renilla reference signal, replicate 2 = 9529; outcome = inactive
CG11588 [DRSC09846]: firefly Hh reporter signal, replicate 1 = 72946; firefly Hh reporter signal, replicate 2 = 65648; firefly Hh reporter signal, replicate 3 = 47644; Renilla reference signal, replicate 1 = 6169; Renilla reference signal, replicate 2 = 3014; outcome = inactive
CG13131 [DRSC02227]: firefly Hh reporter signal, replicate 1 = 1.27e5; firefly Hh reporter signal, replicate 2 = 25334; Renilla reference signal, replicate 1 = 3088; Renilla reference signal, replicate 2 = 4205; outcome = inactive
CG10418 [DRSC09720]: firefly Hh reporter signal, replicate 1 = 52592; firefly Hh reporter signal, replicate 2 = 44903; firefly Hh reporter signal, replicate 3 = 53011; Renilla reference signal, replicate 1 = 4824; Renilla reference signal, replicate 2 = 3459; outcome = inactive
CG34382 [DRSC08999]: firefly Hh reporter signal, replicate 1 = 1.02e5; firefly Hh reporter signal, replicate 2 = 1.83e5; Renilla reference signal, replicate 1 = 3180; Renilla reference signal, replicate 2 = 7660; outcome = inactive
CG34382 [DRSC10166]: firefly Hh reporter signal, replicate 1 = 43715; firefly Hh reporter signal, replicate 2 = 51337; firefly Hh reporter signal, replicate 3 = 72525; Renilla reference signal, replicate 1 = 4588; Renilla reference signal, replicate 2 = 5252; outcome = inactive
CG34382 [DRSC10167]: firefly Hh reporter signal, replicate 1 = 31904; firefly Hh reporter signal, replicate 2 = 41052; firefly Hh reporter signal, replicate 3 = 49340; Renilla reference signal, replicate 1 = 4369; Renilla reference signal, replicate 2 = 4154; outcome = inactive
sob [DRSC00838]: firefly Hh reporter signal, replicate 1 = 1.22e5; firefly Hh reporter signal, replicate 2 = 41180; Renilla reference signal, replicate 1 = 2849; Renilla reference signal, replicate 2 = 4058; outcome = inactive
eEF1alpha2 [DRSC14079]: firefly Hh reporter signal, replicate 1 = 4.22e5; firefly Hh reporter signal, replicate 2 = 1.98e5; Renilla reference signal, replicate 1 = 22672; Renilla reference signal, replicate 2 = 4172; outcome = inactive
eEF1alpha2 [DRSC16658]: firefly Hh reporter signal, replicate 1 = 58020; firefly Hh reporter signal, replicate 2 = 94041; Renilla reference signal, replicate 1 = 2435; Renilla reference signal, replicate 2 = 4729; outcome = inactive
Phf5a [DRSC03261]: firefly Hh reporter signal, replicate 1 = 92471; firefly Hh reporter signal, replicate 2 = 49201; Renilla reference signal, replicate 1 = 2067; Renilla reference signal, replicate 2 = 6138; outcome = inactive
Jon25Bi [DRSC03434]: firefly Hh reporter signal, replicate 1 = 1.05e5; firefly Hh reporter signal, replicate 2 = 49971; Renilla reference signal, replicate 1 = 2868; Renilla reference signal, replicate 2 = 5205; outcome = inactive
Sgs8 [DRSC11282]: firefly Hh reporter signal, replicate 1 = 47683; firefly Hh reporter signal, replicate 2 = 44433; firefly Hh reporter signal, replicate 3 = 53692; Renilla reference signal, replicate 1 = 3776; Renilla reference signal, replicate 2 = 3497; outcome = inactive
